Source: article PMC7550656

How the values were obtained:
Test in all cases: co-IP; 293T cells cotransfected with G3BP1, G3BP2, TIA1 or TIAR and SVV 3C for 24 h; anti-Flag immunoprecipitation from NP-40 lysate, immunoblot
[1] = target: T1, T-cell internal antigen 1, transfected (human (cDNA of 293T cells)) (UniProt P31483)
T1 sequence: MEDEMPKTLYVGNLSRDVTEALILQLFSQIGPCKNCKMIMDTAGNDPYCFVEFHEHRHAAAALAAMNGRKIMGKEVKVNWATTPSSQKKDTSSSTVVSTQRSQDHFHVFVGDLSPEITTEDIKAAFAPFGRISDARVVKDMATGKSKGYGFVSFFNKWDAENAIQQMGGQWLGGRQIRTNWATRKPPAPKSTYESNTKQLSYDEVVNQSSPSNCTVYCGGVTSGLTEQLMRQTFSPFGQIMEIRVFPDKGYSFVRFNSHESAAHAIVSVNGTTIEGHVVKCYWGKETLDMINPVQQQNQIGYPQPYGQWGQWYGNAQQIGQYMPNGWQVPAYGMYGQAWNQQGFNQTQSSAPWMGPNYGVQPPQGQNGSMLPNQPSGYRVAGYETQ

[2] = target: T2, G3BP2, transfected (UniProt Q9UN86)
T2 sequence: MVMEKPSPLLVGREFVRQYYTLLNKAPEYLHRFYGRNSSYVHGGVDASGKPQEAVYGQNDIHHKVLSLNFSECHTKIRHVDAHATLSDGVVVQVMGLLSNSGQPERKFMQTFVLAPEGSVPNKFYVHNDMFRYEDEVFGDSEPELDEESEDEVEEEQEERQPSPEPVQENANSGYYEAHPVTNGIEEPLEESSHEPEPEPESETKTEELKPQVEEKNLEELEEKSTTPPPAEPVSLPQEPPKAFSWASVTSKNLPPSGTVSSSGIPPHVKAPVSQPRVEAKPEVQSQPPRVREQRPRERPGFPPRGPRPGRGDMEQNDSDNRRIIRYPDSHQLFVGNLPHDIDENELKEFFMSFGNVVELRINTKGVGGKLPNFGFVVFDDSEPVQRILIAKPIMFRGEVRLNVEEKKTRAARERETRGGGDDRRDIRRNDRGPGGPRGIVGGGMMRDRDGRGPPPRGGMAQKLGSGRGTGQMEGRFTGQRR

[3] = target: T3, TIAR, transfected (UniProt Q01085)
T3 sequence: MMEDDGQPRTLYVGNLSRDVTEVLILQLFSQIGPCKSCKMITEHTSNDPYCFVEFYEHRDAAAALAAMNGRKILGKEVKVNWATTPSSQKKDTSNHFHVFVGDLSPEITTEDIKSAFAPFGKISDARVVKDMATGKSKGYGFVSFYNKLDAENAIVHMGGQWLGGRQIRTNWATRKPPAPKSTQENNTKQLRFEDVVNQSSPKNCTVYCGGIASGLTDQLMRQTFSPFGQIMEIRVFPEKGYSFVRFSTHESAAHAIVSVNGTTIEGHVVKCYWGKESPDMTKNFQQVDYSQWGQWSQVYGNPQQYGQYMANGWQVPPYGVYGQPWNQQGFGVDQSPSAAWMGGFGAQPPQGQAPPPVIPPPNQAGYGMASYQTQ

Measured: binding

Seneca Valley virus 3C protease (enzyme)
no binding: [1] | [2] | [3]

Results are given in words; binding and its absence hold for the method and conditions named. Binding seen in cells or lysates may run through a third protein.
